Experimental data: PubChem BioAssay AID540275 (National Center for Advancing Translational Sciences (NCATS), 2011)
About 620 (0.19%) of roughly 320,000 compounds were called active. The shares of active, inactive and inconclusive entries below differ from those in the screen. Rule as the data show it: active = activation above about 80%; inconclusive = between about 30% and that limit; inactive = weaker than that.

Sequences of proteins named here, by UniProt entry; tags and fusion partners are left off.
UniProt Q8NER1, whole entry, looked up: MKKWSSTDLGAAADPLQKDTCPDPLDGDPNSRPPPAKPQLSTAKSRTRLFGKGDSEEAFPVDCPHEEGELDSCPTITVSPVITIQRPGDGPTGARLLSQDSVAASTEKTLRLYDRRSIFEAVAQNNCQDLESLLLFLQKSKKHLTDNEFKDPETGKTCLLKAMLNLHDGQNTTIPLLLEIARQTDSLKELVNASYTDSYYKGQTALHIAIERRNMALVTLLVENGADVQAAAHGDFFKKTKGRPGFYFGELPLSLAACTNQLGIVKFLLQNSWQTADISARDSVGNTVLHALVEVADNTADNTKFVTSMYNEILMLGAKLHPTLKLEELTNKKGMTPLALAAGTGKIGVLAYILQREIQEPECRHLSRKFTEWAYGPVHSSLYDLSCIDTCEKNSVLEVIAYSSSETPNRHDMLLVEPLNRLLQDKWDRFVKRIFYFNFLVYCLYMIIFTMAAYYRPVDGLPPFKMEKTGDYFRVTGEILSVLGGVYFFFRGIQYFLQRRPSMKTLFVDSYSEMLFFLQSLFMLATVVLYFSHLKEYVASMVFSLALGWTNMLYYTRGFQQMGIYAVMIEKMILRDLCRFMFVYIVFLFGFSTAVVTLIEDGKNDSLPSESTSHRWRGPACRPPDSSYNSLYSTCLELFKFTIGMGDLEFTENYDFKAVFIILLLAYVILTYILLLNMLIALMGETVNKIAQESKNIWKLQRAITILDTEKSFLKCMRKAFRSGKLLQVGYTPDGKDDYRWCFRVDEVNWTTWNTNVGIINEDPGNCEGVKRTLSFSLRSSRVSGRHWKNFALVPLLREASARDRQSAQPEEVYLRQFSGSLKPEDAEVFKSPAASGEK

Each molecule was assayed against Transient receptor potential cation channel subfamily V member 1 (Homo sapiens) (UniProt Q8NER1) (assay: HTS Assay for Compounds that Act as Agonists of the Vanilloid Receptor 1). Conditions: TRPV1-expressing cells, Fluo-8 calcium influx, agonist mode; at 8.33 µM, stronger effect = higher value.
How it was run: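 Fluo-8 calcium influx in TRPV1-expressing cells, kinetic read (ex 480/em 520 nm). Compound added and read 3 min for agonist activity, followed by capsaicin at EC20 final and 2 min further read for enhancement.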
Also: 0% is about no effect.

Structure (SMILES)	activation
COc1ccc(OCC(=O)N2CCN(C(=O)COc3ccc(Br)cc3)CC2)cc1	inconclusive: 35.7%
CC(C)(C)c1nnc(NC(=O)CCS(=O)(=O)c2ccccc2)s1	inactive: -0.423%
O=C(Nc1ccccc1C(=O)Nc1ccc(Cl)cc1)c1cccnc1	inconclusive: 36.1%
Cc1cc(C)cc(N(CC(=O)Nc2ccc(Br)cc2)S(=O)(=O)c2c(C)[nH]c(=O)[nH]c2=O)c1	inactive: -4.66%
O=C(/C=C/c1ccccc1F)N1CCN(c2ccccn2)CC1	inconclusive: 30.4%
Cc1cc(C)nc(-n2ncc3c2CC(c2ccccc2C)CC3=O)n1 (stereo not given)	inconclusive: 37.4%
Fc1ccc(-c2onc3ccc(C4OCCO4)cc23)cc1	inconclusive: 50.4%
Cc1ccc2cccc(SCC(=O)N3CCOCC3)c2n1	inactive: 0.393%
CCn1c(CCNC(=O)c2ccc(OC)cc2)nnc1SCc1ccc(Cl)c(Cl)c1	inconclusive: 41.2%
Cc1ccccc1OCC(=O)NCC(c1ccco1)N1CCCCC1 (stereo not given)	inconclusive: 38.9%
CCc1ccc(C(=O)c2oc3nc(C)cc(C)c3c2N)cc1	inconclusive: 77.8%
Cc1cc(C(=O)N2CCN(c3cc(Cl)ccc3C)CC2)on1	inconclusive: 54.4%
COc1cc(C)ccc1OCC(=O)Nc1ccccc1N1CCOCC1	inconclusive: 31.7%
CC(C)CCNC(=O)COc1cccc2c1OC(C)(C)C2	inconclusive: 41.5%
CCOC(=O)c1cc2sc(C)cc2n1CC(=O)NCCc1ccccc1	inconclusive: 56.6%
Cc1ccc(NC(=O)N2CCc3ccccc32)cc1	inconclusive: 71.4%
O=C(CCn1c(=S)[nH]c2cc3c(cc2c1=O)OCO3)N1CCc2ccccc2C1	inactive: 5.61%
O=C(CN1CCN(Cc2ccc(Cl)cc2)C1=O)NCCCN1CCOCC1	inactive: 1.2%
O=C(CN(Cc1ccc(Br)cc1)S(=O)(=O)c1ccccc1)NCc1cccnc1	inconclusive: 54.3%
O=C(O)c1ccc(/C=C2\SC(=S)N(Nc3ccccc3)C2=O)cc1	inactive: -3.02%
COc1ccccc1CCN1CCCC(CN(C)CC(C)(C)CO)C1 (stereo not given)	inactive: 0.568%
O=C(Nc1nccs1)c1ccc(Br)c(S(=O)(=O)N2CCCC2)c1	inactive: 16.3%
CCN(CC)S(=O)(=O)c1ccc(N(C)C)c(NC(=O)C2CCCC2)c1	inconclusive: 30.7%
N#C/C(=C/c1ccc(Sc2nc3ccccc3[nH]2)o1)c1ccccc1F	inconclusive: 38%
COc1cccc(CN(C)C(=O)Cc2c[nH]c3ccccc23)c1	inactive: 6.29%

Fetched by compound from the list above (2):
Structure (SMILES)	activation
COc1ccc(OCC(=O)N2CCN(C(=O)COc3ccc(Br)cc3)CC2)cc1	inconclusive: 35.7%
Cc1cc(C)nc(-n2ncc3c2CC(c2ccccc2C)CC3=O)n1 (stereo not given)	inconclusive: 37.4%
